Results taken from patent US7282347B2, “Method for extracting quantitative information relating to interactions between cellular components” (Fisher Bioimage APS, priority 2000, dated 2007).
Results are given in words; binding and its absence hold for the method and conditions named. Some entries that bind do so weakly or less than the wild type.

Legend:
[1] = target: in frame protein fusion between PDE4A4 and human 14-3-3beta (human) (UniProt P31946); assay: redistribution trap in co-transfected CHO cells, 10 uM rolipram, extraction buffer, fluorescence plate reader
[2] = target: in frame protein fusion between PDE4A4 and human 14-3-3beta (human) (UniProt P31946); assay: redistribution trap in co-transfected CHO cells, rolipram, with and without extraction; imaging
[3] = target: anchor probe HSPDE4A4-SosA (human); assay: redistribution trap in co-transfected CHO cells, 10 uM rolipram 20 hours; confocal imaging
[4] = target: anchor probe HSPDE4A4-SosA (human); assay: redistribution trap in co-transfected CHO cells: rolipram-induced spots dissolved by 10 uM RP73401; imaging
[5] = target: anchor probe HSPDE4A4-SosA (human); assay: redistribution trap in co-transfected CHO cells: rolipram-induced GFP-bright spots, dispersed by RP73401; confocal imaging

Substance: in frame protein fusion between EGFP and human BAD (from UniProt P42212 1-238; Q92934 1-168)
- binding [1]: binds
- binding [2]: binds

Substance: detectable probe hGrb2-EGFP (from UniProt P62993 1-217; P42212 1-238)
- binding [3]: binds
- binding [4]: binds
- binding [5]: binds
